# Test results from article doi:10.1101/402123 (bioRxiv, 2018).
# These are yes or no findings as the source states them, for the method shown. For some of these results: Binding seen in cells or lysates may run through a third protein. Some binding calls cover weakened binding; strength is not graded here. For some of these results: Sequences can lack the tags named with a protein.
# T1: GST-β4 (1436-1666)-T1663R (human) (UniProt P16144)
# T1 sequence: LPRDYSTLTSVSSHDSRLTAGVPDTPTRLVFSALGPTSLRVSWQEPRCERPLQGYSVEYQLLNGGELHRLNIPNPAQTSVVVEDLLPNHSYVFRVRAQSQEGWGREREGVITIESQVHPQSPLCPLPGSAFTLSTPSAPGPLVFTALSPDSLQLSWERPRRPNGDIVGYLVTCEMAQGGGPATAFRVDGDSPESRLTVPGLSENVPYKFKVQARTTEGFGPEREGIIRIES
# T2: fluorescein-labeled BP230 peptide 26-55 (human, UniProt Q03001-8 26-55, N-terminal fluorescein)
# T2 peptide (looked up): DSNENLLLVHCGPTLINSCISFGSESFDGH
# Target: T1, GST-β4 (1436-1666)-T1663R (human)
# Assay: pull-down
row,Binder,binding
1,"FLAG-BP230 (19-162) (domain or fragment, UniProt Q03001-8 19-162) TSTRTSLDSNENLLLVHCGPTLINSCISFGSESFDGHRLEMLQQIANRVQRDSVICEDKLILAGNALQSDSKRLESGVQFQNEAEIAGYILECENLLRQHVIDVQILIDGKYYQADQLVQRVAKLRDEIMALRNECSSVYSKGR",binds
2,"FLAG-BP230 (19-162) S27D (domain or fragment, UniProt Q03001-8 19-162) TSTRTSLDDNENLLLVHCGPTLINSCISFGSESFDGHRLEMLQQIANRVQRDSVICEDKLILAGNALQSDSKRLESGVQFQNEAEIAGYILECENLLRQHVIDVQILIDGKYYQADQLVQRVAKLRDEIMALRNECSSVYSKGR",binds
3,"FLAG-BP230 (19-162) S43D (domain or fragment, UniProt Q03001-8 19-162) TSTRTSLDSNENLLLVHCGPTLINDCISFGSESFDGHRLEMLQQIANRVQRDSVICEDKLILAGNALQSDSKRLESGVQFQNEAEIAGYILECENLLRQHVIDVQILIDGKYYQADQLVQRVAKLRDEIMALRNECSSVYSKGR",binds
4,"FLAG-BP230 (19-162) S49D (domain or fragment, UniProt Q03001-8 19-162) TSTRTSLDSNENLLLVHCGPTLINSCISFGDESFDGHRLEMLQQIANRVQRDSVICEDKLILAGNALQSDSKRLESGVQFQNEAEIAGYILECENLLRQHVIDVQILIDGKYYQADQLVQRVAKLRDEIMALRNECSSVYSKGR",binds
5,"FLAG-BP230 (19-162) S51D (domain or fragment, UniProt Q03001-8 19-162) TSTRTSLDSNENLLLVHCGPTLINSCISFGSEDFDGHRLEMLQQIANRVQRDSVICEDKLILAGNALQSDSKRLESGVQFQNEAEIAGYILECENLLRQHVIDVQILIDGKYYQADQLVQRVAKLRDEIMALRNECSSVYSKGR",binds
6,"FLAG-BP230 (19-162) T39D (domain or fragment, UniProt Q03001-8 19-162) TSTRTSLDSNENLLLVHCGPDLINSCISFGSESFDGHRLEMLQQIANRVQRDSVICEDKLILAGNALQSDSKRLESGVQFQNEAEIAGYILECENLLRQHVIDVQILIDGKYYQADQLVQRVAKLRDEIMALRNECSSVYSKGR",binds weakly

# Target: T2, fluorescein-labeled BP230 peptide 26-55
# Assay: fluorescence polarisation
row,Binder,binding
1,"β4-CS-FnIII-3,4 (1436-1666) R1540E (domain or fragment, UniProt P16144-2 1436-1666) LPRDYSTLTSVSSHDSRLTAGVPDTPTRLVFSALGPTSLRVSWQEPRCERPLQGYSVEYQLLNGGELHRLNIPNPAQTSVVVEDLLPNHSYVFRVRAQSQEGWGEEREGVITIESQVHPQSPLCPLPGSAFTLSTPSAPGPLVFTALSPDSLQLSWERPRRPNGDIVGYLVTCEMAQGGGPATAFRVDGDSPESRLTVPGLSENVPYKFKVQARTTEGFGPEREGIITIES",binds weakly
2,"β4-CS-FnIII-3,4 (1436-1666) R1542E (domain or fragment, UniProt P16144-2 1436-1666) LPRDYSTLTSVSSHDSRLTAGVPDTPTRLVFSALGPTSLRVSWQEPRCERPLQGYSVEYQLLNGGELHRLNIPNPAQTSVVVEDLLPNHSYVFRVRAQSQEGWGREEEGVITIESQVHPQSPLCPLPGSAFTLSTPSAPGPLVFTALSPDSLQLSWERPRRPNGDIVGYLVTCEMAQGGGPATAFRVDGDSPESRLTVPGLSENVPYKFKVQARTTEGFGPEREGIITIES",binds weakly
3,"β4-CS-FnIII-3,4 (1436-1666) R1542A (domain or fragment, UniProt P16144-2 1436-1666) LPRDYSTLTSVSSHDSRLTAGVPDTPTRLVFSALGPTSLRVSWQEPRCERPLQGYSVEYQLLNGGELHRLNIPNPAQTSVVVEDLLPNHSYVFRVRAQSQEGWGREAEGVITIESQVHPQSPLCPLPGSAFTLSTPSAPGPLVFTALSPDSLQLSWERPRRPNGDIVGYLVTCEMAQGGGPATAFRVDGDSPESRLTVPGLSENVPYKFKVQARTTEGFGPEREGIITIES",binds weakly
4,"β4-CS-FnIII-3,4 (1436-1666) R1540A (domain or fragment, UniProt P16144-2 1436-1666) LPRDYSTLTSVSSHDSRLTAGVPDTPTRLVFSALGPTSLRVSWQEPRCERPLQGYSVEYQLLNGGELHRLNIPNPAQTSVVVEDLLPNHSYVFRVRAQSQEGWGAEREGVITIESQVHPQSPLCPLPGSAFTLSTPSAPGPLVFTALSPDSLQLSWERPRRPNGDIVGYLVTCEMAQGGGPATAFRVDGDSPESRLTVPGLSENVPYKFKVQARTTEGFGPEREGIITIES",binds weakly
5,"β4-CS-FnIII-3,4 (1436-1666) V1578R/T1580R (domain or fragment, UniProt P16144-2 1436-1666) LPRDYSTLTSVSSHDSRLTAGVPDTPTRLVFSALGPTSLRVSWQEPRCERPLQGYSVEYQLLNGGELHRLNIPNPAQTSVVVEDLLPNHSYVFRVRAQSQEGWGREREGVITIESQVHPQSPLCPLPGSAFTLSTPSAPGPLRFRALSPDSLQLSWERPRRPNGDIVGYLVTCEMAQGGGPATAFRVDGDSPESRLTVPGLSENVPYKFKVQARTTEGFGPEREGIITIES",binds weakly
6,"β4-CS-FnIII-3,4 (1436-1666) R1595E/R1596E (domain or fragment, UniProt P16144-2 1436-1666) LPRDYSTLTSVSSHDSRLTAGVPDTPTRLVFSALGPTSLRVSWQEPRCERPLQGYSVEYQLLNGGELHRLNIPNPAQTSVVVEDLLPNHSYVFRVRAQSQEGWGREREGVITIESQVHPQSPLCPLPGSAFTLSTPSAPGPLVFTALSPDSLQLSWERPEEPNGDIVGYLVTCEMAQGGGPATAFRVDGDSPESRLTVPGLSENVPYKFKVQARTTEGFGPEREGIITIES",binds weakly
7,"β4-CS-FnIII-3,4 (1436-1666) D1600R (domain or fragment, UniProt P16144-2 1436-1666) LPRDYSTLTSVSSHDSRLTAGVPDTPTRLVFSALGPTSLRVSWQEPRCERPLQGYSVEYQLLNGGELHRLNIPNPAQTSVVVEDLLPNHSYVFRVRAQSQEGWGREREGVITIESQVHPQSPLCPLPGSAFTLSTPSAPGPLVFTALSPDSLQLSWERPRRPNGRIVGYLVTCEMAQGGGPATAFRVDGDSPESRLTVPGLSENVPYKFKVQARTTEGFGPEREGIITIES",binds weakly
8,"β4-CS-FnIII-3,4 (1436-1666) P1616R/T1618R (domain or fragment, UniProt P16144-2 1436-1666) LPRDYSTLTSVSSHDSRLTAGVPDTPTRLVFSALGPTSLRVSWQEPRCERPLQGYSVEYQLLNGGELHRLNIPNPAQTSVVVEDLLPNHSYVFRVRAQSQEGWGREREGVITIESQVHPQSPLCPLPGSAFTLSTPSAPGPLVFTALSPDSLQLSWERPRRPNGDIVGYLVTCEMAQGGGRARAFRVDGDSPESRLTVPGLSENVPYKFKVQARTTEGFGPEREGIITIES",binds weakly
9,"β4-CS-FnIII-3,4 (1436-1666) R1621E/D1623R (domain or fragment, UniProt P16144-2 1436-1666) LPRDYSTLTSVSSHDSRLTAGVPDTPTRLVFSALGPTSLRVSWQEPRCERPLQGYSVEYQLLNGGELHRLNIPNPAQTSVVVEDLLPNHSYVFRVRAQSQEGWGREREGVITIESQVHPQSPLCPLPGSAFTLSTPSAPGPLVFTALSPDSLQLSWERPRRPNGDIVGYLVTCEMAQGGGPATAFEVRGDSPESRLTVPGLSENVPYKFKVQARTTEGFGPEREGIITIES",binds weakly
10,"β4-CS-FnIII-3,4 (1436-1666) E1628R/R1630E (domain or fragment, UniProt P16144-2 1436-1666) LPRDYSTLTSVSSHDSRLTAGVPDTPTRLVFSALGPTSLRVSWQEPRCERPLQGYSVEYQLLNGGELHRLNIPNPAQTSVVVEDLLPNHSYVFRVRAQSQEGWGREREGVITIESQVHPQSPLCPLPGSAFTLSTPSAPGPLVFTALSPDSLQLSWERPRRPNGDIVGYLVTCEMAQGGGPATAFRVDGDSPRSELTVPGLSENVPYKFKVQARTTEGFGPEREGIITIES",binds weakly
11,"β4-CS-FnIII-3,4 (1436-1666) T1632R/P1634R (domain or fragment, UniProt P16144-2 1436-1666) LPRDYSTLTSVSSHDSRLTAGVPDTPTRLVFSALGPTSLRVSWQEPRCERPLQGYSVEYQLLNGGELHRLNIPNPAQTSVVVEDLLPNHSYVFRVRAQSQEGWGREREGVITIESQVHPQSPLCPLPGSAFTLSTPSAPGPLVFTALSPDSLQLSWERPRRPNGDIVGYLVTCEMAQGGGPATAFRVDGDSPESRLRVRGLSENVPYKFKVQARTTEGFGPEREGIITIES",binds weakly
12,"β4-CS-FnIII-3,4 (1436-1666) S1637R/E1638R (domain or fragment, UniProt P16144-2 1436-1666) LPRDYSTLTSVSSHDSRLTAGVPDTPTRLVFSALGPTSLRVSWQEPRCERPLQGYSVEYQLLNGGELHRLNIPNPAQTSVVVEDLLPNHSYVFRVRAQSQEGWGREREGVITIESQVHPQSPLCPLPGSAFTLSTPSAPGPLVFTALSPDSLQLSWERPRRPNGDIVGYLVTCEMAQGGGPATAFRVDGDSPESRLTVPGLRRNVPYKFKVQARTTEGFGPEREGIITIES",binds weakly
13,"β4-CS-FnIII-3,4 (1436-1666) F1654R (domain or fragment, UniProt P16144-2 1436-1666) LPRDYSTLTSVSSHDSRLTAGVPDTPTRLVFSALGPTSLRVSWQEPRCERPLQGYSVEYQLLNGGELHRLNIPNPAQTSVVVEDLLPNHSYVFRVRAQSQEGWGREREGVITIESQVHPQSPLCPLPGSAFTLSTPSAPGPLVFTALSPDSLQLSWERPRRPNGDIVGYLVTCEMAQGGGPATAFRVDGDSPESRLTVPGLSENVPYKFKVQARTTEGRGPEREGIITIES",binds weakly
14,"β4-CS-FnIII-3,4 (1436-1666) I1661R (domain or fragment, UniProt P16144-2 1436-1666) LPRDYSTLTSVSSHDSRLTAGVPDTPTRLVFSALGPTSLRVSWQEPRCERPLQGYSVEYQLLNGGELHRLNIPNPAQTSVVVEDLLPNHSYVFRVRAQSQEGWGREREGVITIESQVHPQSPLCPLPGSAFTLSTPSAPGPLVFTALSPDSLQLSWERPRRPNGDIVGYLVTCEMAQGGGPATAFRVDGDSPESRLTVPGLSENVPYKFKVQARTTEGFGPEREGRITIES",binds weakly
15,"β4 FnIII-3 (1457-1548) (domain or fragment, UniProt P16144-2 1457-1548) VPDTPTRLVFSALGPTSLRVSWQEPRCERPLQGYSVEYQLLNGGELHRLNIPNPAQTSVVVEDLLPNHSYVFRVRAQSQEGWGREREGVITI",no binding
16,"β4 FnIII-4 (1572-1666) (domain or fragment, UniProt P16144-2 1572-1666) SAPGPLVFTALSPDSLQLSWERPRRPNGDIVGYLVTCEMAQGGGPATAFRVDGDSPESRLTVPGLSENVPYKFKVQARTTEGFGPEREGIITIES",no binding
